This data set in a line: Cytotoxicity assay measuring cell proliferation in Vero cells. In kind it is cell-based. To be noted: African green monkey, remdesivir. As to the method:
Numbers in parentheses indicate percent inhibition at the highest concentration tested. Cytotoxicity assays measuring the cell proliferation in PBM and Vero cells were performed in parallel to the antiviral assays.

In turn, `CCC(CC)COC(=O)[C@H](C)N[P@](=O)(OC[C@H]1O[C@@](C#N)(c2ccc3c(N)ncnn23)[C@H](O)[C@@H]1O)Oc1ccccc1` [Remdesivir] gave a CC50 of 60.3 µM.

As a reminder, the CC50 is the concentration that lowers cell viability or growth by half. A higher CC50 goes with lower toxicity to the cells.

For the origin of these results see patent US20250288632A1, “Viral Entry Inhibitors Derived From Botanicals” (priority 2022, published 2025).
